Measurements taken from PubChem BioAssay AID1508615 (Milbrandt Lab, Department of Genetics, Washington …, 2020).
Among all 1,600 compounds or so, about 20 (1%) were called active.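 The calls were made as follows: active = ratio of uncleaved NAD to its breakdown product ADP-ribose above 4, meaning the enzyme was inhibited; inactive = the rest.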 The list shows a part of the results.

Protein sequences, listed by entry. Tags and fused reporters are not part of them. Lines headed by an entry give the natural chain unless they say otherwise; changes in a name come on top.
UniProt Q6SZW1: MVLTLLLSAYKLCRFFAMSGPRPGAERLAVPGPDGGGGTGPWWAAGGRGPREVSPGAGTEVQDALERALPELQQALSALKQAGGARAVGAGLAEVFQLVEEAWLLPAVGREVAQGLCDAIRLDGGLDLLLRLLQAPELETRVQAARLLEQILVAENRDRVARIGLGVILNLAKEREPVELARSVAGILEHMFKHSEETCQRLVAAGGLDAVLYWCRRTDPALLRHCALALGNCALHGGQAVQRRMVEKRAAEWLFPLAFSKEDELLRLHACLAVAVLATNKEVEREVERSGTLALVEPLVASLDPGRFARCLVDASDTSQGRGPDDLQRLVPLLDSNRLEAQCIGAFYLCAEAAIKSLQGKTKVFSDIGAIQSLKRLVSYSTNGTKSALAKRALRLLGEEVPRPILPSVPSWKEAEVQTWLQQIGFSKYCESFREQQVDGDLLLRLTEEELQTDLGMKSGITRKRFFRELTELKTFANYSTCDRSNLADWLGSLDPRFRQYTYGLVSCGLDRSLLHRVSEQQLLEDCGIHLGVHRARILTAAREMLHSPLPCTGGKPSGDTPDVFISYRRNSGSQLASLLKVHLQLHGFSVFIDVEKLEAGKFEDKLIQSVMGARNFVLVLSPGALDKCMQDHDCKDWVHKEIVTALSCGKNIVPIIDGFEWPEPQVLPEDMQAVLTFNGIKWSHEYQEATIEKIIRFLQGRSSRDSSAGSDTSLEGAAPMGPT

target: NAD(+) hydrolase SARM1 (Homo sapiens) (UniProt Q6SZW1); assay: SARM1 TIR NADase inhibitors by HPLC, primary screen, cell lysate, HPLC readout (AID 1508615); conditions: HEK293T SAM-TIR lysate, at 5 µM, stronger effect = higher value;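 also: substrate NAD at 5 µM with 60 min at 37 °C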

NAD/ADPR ratio, active:
Cc1cc(O)c(-c2cc(O)c(C)cc2O)cc1O 5.8
CC1(C)CC[C@]2(C(=O)n3ccnc3)CC[C@]3(C)[C@H](C(=O)C=C4[C@@]5(C)C=C(C#N)C(=O)C(C)(C)[C@@H]5CC[C@]43C)[C@@H]2C1 6.5
COc1ccc2c(c1)c1ccc3c(c1n2C)C(=O)C=CC3=O 7.6

NAD/ADPR ratio, inactive:
CCNc1nc(NC(C)C)nc(-c2ccncc2)n1 3
N/C(CC(=O)Nc1cc(C(F)(F)F)ccc1Cl)=N\O 3
CCOC(=O)c1nn(-c2ccccc2)cc1O 3
Cc1c(NC(=O)Nc2c(Cl)cccc2Cl)c(=O)n(-c2ccccc2)n1C 3
Nc1nc(Cl)cc(Nc2ccccc2Cl)n1 3
CC1=NC(C)(C)CC2CCC(O)C12 (stereo not drawn) 3
O=c1nc(Oc2ccccc2)nc2ncccn12 3
CCC(C)n1c(C)cc(=O)n1C(C)CC (stereo not drawn) 3
c1ccn(CCc2ccncc2)c1 3
CCSc1nc(C)c(C)c(=O)[nH]1 3
CN(C)c1ccc(/C=C/C(=O)c2cc(Cl)ccc2O)cc1 3
NC1(N2SC(S)=C3CCCC=C32)CCCCC1 3
Cc1cccn2c(=S)[nH]nc12 3
COc1ccc(CC(=O)c2ccc(O)cc2O)cc1 3
O=C(O)c1ccc2c(c1Sc1ccccc1)C(=O)c1ccccc1C2=O 3
CCOC(=O)c1nc2sc3c(c2c(=O)[nH]1)CCCC3 3
CCOC(=O)CCCN(c1[nH]c(C)c(C)c1C#N)S(=O)(=O)c1ccc(C)cc1 3
OC(COc1ccc(Cl)cc1)CN1CCN(c2cccc(Cl)c2)CC1 (stereo not drawn) 3
CCOC(=O)/C(=N\O)C1=CSC2=NNC(C)(C)N12 3
CCCCOc1ccc(OC(=O)Nc2cc(Cl)ccc2OC)cc1 3
Oc1ccc(Cc2ccc(Cl)cc2)c(O)c1 3
CCOC(=O)c1c(C)nc(C)c(C(=O)OCC)c1-c1ccc(OC)cc1 3
CSc1ncc2ncn(C3OC(CO)C(O)C3O)c2n1 (stereo not drawn) 3
COc1ccc2c3c([nH]c2c1)C1CC2C(CC(O)C(OC)C2C(=O)O)CN1CC3 (stereo not drawn) 3
CC(=O)Nc1nc(C)c(CCC2OCCO2)c(=O)[nH]1 3
CCC(CNc1cc(OC)cc2cccnc12)NC1CCCCC1 (stereo not drawn) 3
Clc1ccc(Nc2nnc(-c3ccc4c(c3)OCO4)o2)cc1 3
CCOC(=O)CC(=O)NC(C)(C)CCCCC(C)(C)NC(=O)CC(=O)OCC 3
C(=C\c1ccncc1)/c1ccncc1 3
NC(N)=NC(N)=Nc1ccc(O)cc1 3
Cn1c2c(c(=O)n(C)c1=O)NC1(N2)C(=O)Nc2ccccc21 (stereo not drawn) 3
COc1ccc(/C=C2\CCOC2=O)cc1 3
Cc1nnc2nc(-c3ccccc3)nc(-c3ccccc3)n12 3
CC(=O)NCC1(O)CCCC(C)C1 (stereo not drawn) 3
C=CCc1ccccc1OCC(=O)O 3
CSc1ccc2c(c1)C(N1CCN(C)CC1)Cc1ccccc1S2 (stereo not drawn) 3
O/N=C(/c1ccccc1)c1ccc2c3c(cccc13)CC2 3
CCOCc1cc(=O)[nH]c(SC)n1 3
CC(=O)n1cc(C2CC(=O)OC3=C2CC(=O)C(C)(C)C3)c2ccccc21 (stereo not drawn) 3
CC(=O)Nc1cc(NC(C)=O)ncn1 3
Cc1c(C#N)c2n(c1C)CCCC(=O)N2 3
OC(COc1ccccc1)CN1CCN(c2ccccc2)CC1 (stereo not drawn) 3
C1=Cc2ccccc2Nc2ccccc21 3
CC(=O)NCC(O)c1ccc([N+](=O)[O-])cc1 (stereo not drawn) 3
O=c1nccc(SCc2ccc(Cl)cc2Cl)[nH]1 3
Cc1cc(C)c(C#N)c(Sc2nc(C)c([N+](=O)[O-])c(C)c2C#N)n1 3
CC(=O)OC1COC(OC(C)=O)CO1 (stereo not drawn) 3
Oc1ccc2ccc3[nH]cnc3c2c1 3
Cn1c(=O)c2c(nc(Oc3ccccc3)n2C)n(C)c1=O 3
NC(=Nc1nc(-c2ccccn2)cc2ccccc12)c1ccccn1 3
O=C(O)c1cncc(Br)c1 3
O=C(NCc1ccco1)Nc1cccc([N+](=O)[O-])c1 3
O=c1[nH]c(=S)[nH]cc1Oc1ccc(Cl)cc1Cl 3
O=C(Nc1ncc([N+](=O)[O-])s1)c1cccc([N+](=O)[O-])c1 3
CCN1CCCC(Sc2nc3c([nH]2)c(=S)n(C)c(=O)n3C)C1 (stereo not drawn) 3
C=CCNc1ncnc2sc(SC)nc12 3
N#CCCCCN1CCCC1 3
Cc1ccccc1NC(=O)Oc1cccc(OC(=O)c2ccccc2)c1 3
CC(C)=NNc1ncnc2nc[nH]c12 3
CCC/C(C)=C/c1ccc(CC)cn1 3
CC1(c2ccc3ccccc3c2)CCC(=O)O1 (stereo not drawn) 3
CCCCCc1cc(=O)[nH]c(=S)[nH]1 3
COC1OC(CO)C(N=C(C)C)C1O (stereo not drawn) 3
O=c1nc2onnc2c(/C=N\O)[nH]1 3
CC(C)(C)C(=O)/C=C/c1ccc(Oc2ccccc2)cc1 3.5
NC(=O)Cc1ccc2c(c1)[nH]c1ccccc12 3
O=c1cc2oc3cc(O)c(O)cc3c(-c3ccccc3O)c-2cc1O 3
NC(=O)NC(=O)c1nccnc1C(=O)O 3
Cc1ccc(CC#N)c(-c2c(CC#N)ccc(C)c2C)c1C 3
C=CCOc1c(CCC)cc(CCC)cc1C(N)=O 3
CCC(CC)c1ncc[nH]1 3
Cc1cccc(N2CCN(CC(O)COc3ccccc3Cl)CC2)c1 (stereo not drawn) 3
CC(C)Cc1nnc(N)s1 3
CN(C)C=Nc1ccc(Cl)c(Cl)c1 3
CC(=O)c1c(O)c(C)c(O)c2c1OC1=CC(=O)/C(=C(/C)N)C(=O)C12C (stereo not drawn) 3
CC(C1=C(CCN(C)C)Cc2ccccc21)c1ccccn1 (stereo not drawn) 3
Cn1nc(NC(=O)C(F)(F)F)c2ncc(-c3ccc(Cl)cc3)nc21 3
COc1cc(S(N)(=O)=O)c(OC)cc1N 3
Cc1cc(N(C)C)ccc1N=Nc1ccc2ncccc2c1 3
Cc1ccc(NC(=O)Nc2ccccc2C(N)=O)cc1 3
CC(=O)OC1CCC2(C)C(=CCC3C2CCC2(C)C3CC3OC4(CCC(C)CN4)C(C)C32)C1 (stereo not drawn) 3
O=C1NCCc2c1[nH]c1ccccc21 3
C=C(C)c1nc(Oc2ccccc2)nc(Oc2ccccc2)n1 3
N#Cc1cnn2ccn(C3OC(CO)C(O)C3O)c12 (stereo not drawn) 3
CN1C2CCC1CC(OC(c1ccccc1)c1ccccc1)C2 (stereo not drawn) 3
O=c1cc/c(=N\Nc2ccccc2)c(=O)/c1=N/Nc1ccccc1 3
O=C(O)CCC(=O)OCCN(Cc1ccc(Oc2ccc([N+](=O)[O-])cc2)cc1)C(=O)C(Cl)Cl 3
N#Cc1[nH]nc2nc[nH]c(=O)c12 3
c1ccc2c(c1)Oc1cccc3cccc-2c13 3
CN(CC(=O)O)Cc1oc(CO)cc(=O)c1O 3
CCCCn1ccnc1C 3
Cc1cc(-c2ccc(N3C(=O)CC4(CCCC4)C3=O)c(C)c2)ccc1N1C(=O)CC2(CCCC2)C1=O 3
O=[N+]([O-])c1cccnc1Oc1cccnc1 3
CCOc1ccc(Nc2c3ccccc3nc3ccccc23)cc1 3
COc1ccc(/C(C#N)=C/c2ccccn2)cc1 3
Cc1cc2nc(CS)[nH]c2cc1C 3
CCCCN1C(=O)CC2CCOC21C (stereo not drawn) 3
COc1ccc(C2C3=C(COC3=O)Oc3cc4c(cc32)OCO4)cc1OC (stereo not drawn) 3
c1ccc(Sc2ncccn2)nc1 3
Cc1ccc(Nc2c(O)nc[nH]c2=O)cc1C 3
Nc1ccc(S(=O)(=O)NCC2CCCCO2)cc1 (stereo not drawn) 3
CCOC(=O)Nc1ccc(C(=O)/C=C/c2ccccc2)cc1 3
O=C(CCl)NC1(C(=O)O)CCCC1 3
C#Cc1cccc(NC(=O)c2ccc(Cl)cc2Cl)c1 3
O=[N+]([O-])c1cc(-c2cccnc2)n[nH]1 3
O=C(C(=O)c1cccnc1)c1cccnc1 3
OCc1nnn(-c2ccccc2)c1CO 3
NNC(=O)c1nnsc1-c1csnn1 3
CCN1CCCCC(=N/O)/C(=N/O)CCCC1 3
Cc1ccc2c(c1)C(=C(C#N)C#N)CCN2 3
Clc1ncnc2[nH]ccc12 3
CCCN(CCC)c1ccc(/C=C/c2ccc3cc(OCC)ccc3n2)cc1 3
O=C(O)C(C=C(Cl)Cl)N1CCOCC1 (stereo not drawn) 3
O=C(CSc1nc2ccc([N+](=O)[O-])cc2s1)c1ccc2ccccc2c1 3
Nc1nc2ccc([N+](=O)[O-])cc2[nH]1 3
CC(=O)NC1(C(=O)O)CCCC1 3
Nc1ccc(C(=O)Oc2ccc([N+](=O)[O-])cc2)cc1 3
c1cncc(-c2nc3ccccc3s2)c1 3
N#Cc1ccc(NC2c3ccccc3CC2O)cc1 (stereo not drawn) 3
O=c1[nH]c(SCc2ccccc2[N+](=O)[O-])nc2nc[nH]c12 3

3 neighbouring records already listed:
NAD/ADPR ratio, inactive:
O/N=C(/c1ccccc1)c1ccc2c3c(cccc13)CC2 3
CCOCc1cc(=O)[nH]c(SC)n1 3
CC(=O)n1cc(C2CC(=O)OC3=C2CC(=O)C(C)(C)C3)c2ccccc21 (stereo not drawn) 3

Quoted at random: 4 records from the list
NAD/ADPR ratio, inactive:
C(=C\c1ccncc1)/c1ccncc1 3
Clc1ccc(Nc2nnc(-c3ccc4c(c3)OCO4)o2)cc1 3
NC(N)=NC(N)=Nc1ccc(O)cc1 3
O=C(CSc1nc2ccc([N+](=O)[O-])cc2s1)c1ccc2ccccc2c1 3

A draw from above in order of number of heavy atoms, falling:
NAD/ADPR ratio, inactive:
Cn1c(=O)c2c(nc(Oc3ccccc3)n2C)n(C)c1=O 3
COc1ccc(/C=C2\CCOC2=O)cc1 3
CC(C)=NNc1ncnc2nc[nH]c12 3
